PubChem BioAssay AID1259405 | NCATS – 2018

- Screen: 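Mouse-designed siRNAs used to find CHO productivity engineering targets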 (primary screen)
- Cell system: Chinese hamster CHO-K1 ovary cells with stable secreted eGFP expression
- Knock-down reagent: single siRNA against mouse genes, 0.8 pmol siRNA per well (2 µl of 400 nM stock)
- Time to read-out: 3 days
- Detection: 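Per-well intracellular GFP measured by laser scanning cytometry, plus viability from ATP luminescence, each relative to plate median of non-targeting control wells, in %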
- Scale: GFP, % of control: higher = more GFP per well, higher productivity; viability (ATP), % of control: higher = more viable cells (more ATP)
- Hit rule: 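a knock-down is called active if GFP reaches 120% or more of non-targeting control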
The whole screen tested about 50,000 reagents; shown is a part drawn at random. Over the whole deposit, about 4,000 (8%) got an active call. 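Mouse siRNA library applied to hamster cells; one well for each siRNA.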 Entries without a mark were called inactive. No sequences are given here.

Gene | PubChem SID | GFP, % of control | viability (ATP), % of control
Lrrc8d | SID363540283 | 64.1 | 78.7
Lrrc8d | SID363542035 | 71 | 53.7
Lrrc8d | SID363566951 | 76 | 67.7
Col2a1 | SID363553742 | 65.4 | 54.6
Col2a1 | SID363561699 | 110 | 99.8
Col2a1 | SID363565437 | 109 | 72.8
Olfm4 | SID363544611 | 38.3 | 54.2
Olfm4 | SID363550939 | 57 | 82.8
Olfm4 | SID363557488 | 37.5 | 33.4
Rad50 | SID363569598 | 92 | 96.8
Rad50 | SID363577342 | 78 | 69
Rad50 | SID363578750 | 81.1 | 86.2
Ppm1l | SID363547551 | 99.7 | 78.1
Ppm1l | SID363558320 | 111 | 49.8
Ppm1l | SID363560078 | 98.8 | 60.4
Fxr2 | SID363569393 | 98 | 79.8
Fxr2 | SID363577137 | 74.8 | 50.6
Fxr2 | SID363578545 | 82.7 | 78.5
Vmn1r197 | SID363556572 | 89.9 | 69.6
Vmn1r197 | SID363563476 | 53.3 | 54.6
Vmn1r197 | SID363587022 | 69.2 | 82.1
Gata4 | SID363573243 | 78 | 82.5
Gata4 | SID363588482 | 73.4 | 67
Prdm15 | SID363573651 | 140 (active) | 112
Prdm15 | SID363581395 | 40.7 | 45.8
Prdm15 | SID363583859 | 79 | 101
Anxa8 | SID363570326 | 76.4 | 101
Anxa8 | SID363576662 | 54 | 52.1
Anxa8 | SID363579830 | 53.8 | 59.5
Gng11 | SID363570107 | 97.3 | 106
Gng11 | SID363576443 | 45.8 | 50.1
Gng11 | SID363579611 | 70.1 | 65.2
Mbd1 | SID363545816 | 77.7 | 73.4
Mbd1 | SID363549329 | 65.9 | 66.4
Mbd1 | SID363563135 | 75.1 | 60.7
Or4c126 | SID363554255 | 73.3 | 46.9
Or4c126 | SID363567702 | 146 (active) | 59.5
Or4c126 | SID363585059 | 79.8 | 98.1
Scgb3a2 | SID363555034 | 73 | 45.5
Scgb3a2 | SID363568481 | 74.8 | 70.9
Scgb3a2 | SID363586540 | 77.2 | 80.7
Or11a4 | SID363545085 | 54.7 | 45.3
Or11a4 | SID363551413 | 73 | 71.6
Or11a4 | SID363557962 | 101 | 92.4
Or5p64 | SID363544517 | 89.4 | 87.5
Or5p64 | SID363550845 | 60.9 | 59.8
Or5p64 | SID363557394 | 67.4 | 49.5
Tmem229b | SID363552151 | 90.3 | 67.1
Tmem229b | SID363585287 | 57.9 | 78.8
Tmem229b | SID363585638 | 40.3 | 64.3
Or10a3 | SID363544957 | 43.5 | 56.9
Or10a3 | SID363551285 | 159 (active) | 97.9
Or10a3 | SID363557834 | 46.7 | 49.1
Sva | SID363556225 | 87 | 83.9
Sva | SID363586675 | 135 (active) | 131
Sva | SID363588783 | 134 (active) | 122
Cd3e | SID363544362 | 125 (active) | 104
Cd3e | SID363550690 | 70.7 | 86.6
Cd3e | SID363557239 | 61.5 | 84.4
Tbl1xr1 | SID363552373 | 55.7 | 39.1
Tbl1xr1 | SID363585509 | 100 | 79
Tbl1xr1 | SID363585860 | 93.8 | 122
Pxdn | SID363568852 | 119 | 100
Pxdn | SID363576244 | 69 | 85.4
Pxdn | SID363579060 | 67 | 71.5
Zfp609 | SID363556724 | 65.7 | 29.7
Zfp609 | SID363563628 | 95.7 | 59.3
Zfp609 | SID363587174 | 69 | 80.8
Dcbld1 | SID363539614 | 69.4 | 60.2
Dcbld1 | SID363560915 | 72.3 | 83.6
Dcbld1 | SID363565005 | 77 | 82
Snhg16 | SID363543662 | 42.8 | 47.7
Snhg16 | SID363553155 | 52.6 | 101
Snhg16 | SID363559003 | 65.4 | 86.2
Phactr1 | SID363547797 | 79.1 | 61.2
Phactr1 | SID363558566 | 61.5 | 42
Phactr1 | SID363560324 | 98.6 | 113
Gm5069 | SID363562307 | 105 | 87
Gm5069 | SID363567445 | 117 | 93.9
Gm5069 | SID363584802 | 80.4 | 59.5
Dyrk4 | SID363570991 | 70 | 84.3
Ido1 | SID363581747 | 28.5 | 29.8
Ido1 | SID363589241 | 64.3 | 74
Vmn1r237 | SID363571386 | 132 (active) | 109
Vmn1r237 | SID363571738 | 58.9 | 77
Vmn1r237 | SID363572090 | 62.6 | 72.2
